The other results are listed elsewhere or left out. Further columns of the screen follow, without active or inactive calls. The list favours compounds with an active or inconclusive main result. The note in brackets gives the kind of curve behind each potency; many fits are weak.
Assay: qHTS Assay for Lipid Storage Modulators in Drosophila S3 Cells;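 on cell number change: cells counted by Cell Tracker Red CMTPX staining in the red channel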
Conditions: BODIPY lipid droplet fluorescence, 18-24 h; for cell number change: measured here: cell count max response, cells fed with added oleic acid
Summary of the method: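 Laser-scanning cytometry quantifies lipid droplet accumulation (500–530 nm total intensity; droplet/cell object ratio) in oleic acid-fed (400 uM added) Drosophila S3 cells treated with a concentration series. 20 uM Triacsin C defined 100% inhibition.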

[1] = measured here: lipid fluorescence (Fed channel) AC50, cells fed with added oleic acid
[2] = measured here: cell number channel AC50, cells fed with added oleic acid

Cc1nc(-c2ccccc2)sc1-c1ccn[nH]1
cell number change: 5.76%

CCOC(=O)C1=C(C)NC(=S)NC1c1ccc(OC(=O)c2ccco2)cc1 (stereo unspecified)
cell number change: 19.6% | AC50 [1]: 29.1 µM [rising, single point]

Cc1ccc(S(=O)(=O)Nc2ccc(NC(=O)Nc3cccc(C(F)(F)F)c3)cc2)cc1
cell number change: -54.3% | AC50 [2]: 23.1 µM [falling, partial curve, poor fit] | AC50 [1]: 20.6 µM [falling, partial curve]

Cn1cc(/C=C/c2cc[n+](C)cc2)c2cc(Cl)ccc21
cell number change: -7.84% | AC50 [1]: 32.6 µM [falling, single point]

CCOc1ccc2nc(-c3cc(NC(C)=O)ccc3O)sc2c1
cell number change: 19.7% | AC50 [1]: 0.206 µM [rising, partial curve]

CCN(Cc1ccccc1)C(=O)COC(=O)c1cc(Cl)nc(Cl)c1
cell number change: -30.3% | AC50 [2]: 0.411 µM [falling, full curve, poor fit] | AC50 [1]: 0.58 µM [falling, full curve, poor fit]

COc1cccc(CN(C)C(=O)c2ccc(NS(=O)(=O)c3ccc(F)cc3)cc2)c1OC
cell number change: 50% | AC50 [2]: 29.1 µM [rising, single point] | AC50 [1]: 6.51 µM [falling, single point]

O=C(CNC(=O)c1ccc(Cl)cc1Cl)OCC(=O)c1ccc2c(c1)OCCO2
cell number change: 54.8% | AC50 [2]: 2.31 µM [rising, partial curve, poor fit]

Cc1c(NC(=O)Nc2ccc(F)cc2F)c(=O)n(-c2ccccc2)n1C
cell number change: -10.3% | AC50 [1]: 0.58 µM [rising, single point]

Fc1ccc(N/N=C/c2ccc(N3CCOCC3)cc2)c(F)c1
cell number change: 16.5% | AC50 [1]: 0.517 µM [rising, full curve]

Cc1ccc(C(=O)CCS(=O)(=O)c2ccc(Br)cc2)cc1
cell number change: -41.6%

Cc1cc(C)n(-c2nc3nonc3nc2Nc2cccc(C)c2C)n1
cell number change: -11.9% | AC50 [1]: 0.82 µM [rising, single point]

Cc1sc2nc(CSc3ccc([N+](=O)[O-])c(C(F)(F)F)c3)[nH]c(=O)c2c1C
AC50 [2]: 29.1 µM [rising, single point] | AC50 [1]: 0.116 µM [falling, full curve, poor fit]

C#Cc1ccc(CN2CCC(N3CCC(C(=O)NCc4ccccn4)CC3)CC2)cc1
cell number change: -63.7% | AC50 [2]: 23.1 µM [falling, single point] | AC50 [1]: 29.1 µM [falling, single point]

CCOC(=O)N1CCC(NC(=O)Cn2ncc3ccccc32)CC1
cell number change: 10.7% | AC50 [1]: 6.51 µM [falling, single point]

Cc1ccc(NC(=O)C2CC(=O)n3ncnc3N2)cc1 (stereo unspecified)
cell number change: -30.5% | AC50 [2]: 0.082 µM [falling, full curve] | AC50 [1]: 1.16 µM [falling, full curve]

Cn1c(CN2CCCCC2)nc2cc(NS(=O)(=O)c3ccc(Cl)cc3)ccc21
cell number change: 0.234%

Cc1ccc(C2CC(c3ccco3)=NN2S(C)(=O)=O)cc1 (stereo unspecified)
cell number change: 5.14% | AC50 [1]: 16.4 µM [falling, partial curve]

COc1ccc(CNC(=O)c2c(C)cc(=O)oc2C)cc1OC
cell number change: 4.31% | AC50 [1]: 6.51 µM [falling, single point]

CC(Oc1ccc(F)cc1)C(=O)Nc1cc(S(=O)(=O)N2CCOCC2)ccc1N1CCCCC1 (stereo unspecified)
cell number change: -19% | AC50 [1]: 16.4 µM [falling, single point]

Cc1ccc(C)c(NC(=S)N2CCN(c3ccccn3)CC2)c1
cell number change: 2.47% | AC50 [1]: 29.1 µM [rising, single point]

Cc1cc(C)cc(OCC(O)Cn2nc(C)cc2C)c1 (stereo unspecified)
cell number change: 19.1%

CCOC(CNC(=O)CCc1c(C)nc2nc(C)nn2c1C)OCC
cell number change: -13.3% | AC50 [2]: 2.06 µM [falling, partial curve, poor fit] | AC50 [1]: 29.1 µM [falling, single point]

NC(=O)NC(=O)CN1C(=O)NC(c2ccccc2)(c2ccccc2)C1=O
cell number change: 13.7% | AC50 [1]: 29.1 µM [rising, single point]

CC(Sc1ncnc2c1cnn2-c1ccccc1)C(=O)Nc1ccc(N2CCOCC2)cc1 (stereo unspecified)
cell number change: 6.88% | AC50 [1]: 0.103 µM [rising, full curve, poor fit]

COc1ccc(NC(C)=O)cc1NC(=O)CSc1nnc(-c2ccccc2)n1N
cell number change: 13.5% | AC50 [1]: 2.06 µM [falling, partial curve]

CS(=O)(=O)NCCSCc1c(Cl)cccc1Cl
cell number change: 11.1% | AC50 [1]: 6.51 µM [falling, single point]

Cc1ccccc1CSCC(=O)N1CCN(c2ccccc2)CC1
AC50 [1]: 5.8 µM [rising, partial curve]

COc1ccc(CNC(=O)COc2cc3c(c4oc(=O)cc(C)c24)CCC(C)(C)O3)cc1OC
cell number change: 4.28% | AC50 [1]: 29.1 µM [falling, single point]

CCSc1ncc(Cl)c(C(=O)Nc2ccc(S(=O)(=O)Nc3ncccn3)cc2)n1
cell number change: -13.4%

COc1ccc(N/C(=C(/C(Cl)=C(Cl)Cl)[N+](=O)[O-])n2nnc3ccccc32)cc1
cell number change: 17.9% | AC50 [2]: 0.731 µM [rising, full curve, poor fit]

O=C(Nc1ccccc1N1CCCCC1)c1cccc(OC(F)F)c1
cell number change: -17.9%

COc1ccc(N2CCN(CC(O)COc3ccccc3[N+](=O)[O-])CC2)cc1 (stereo unspecified)
cell number change: 33.3% | AC50 [1]: 8.2 µM [rising, partial curve]

CC12CC3CC(C)(C1)CC(CN1CCOCC1)(C3)C2
cell number change: -1.06% | AC50 [1]: 23.1 µM [falling, single point]

Cc1cccc(C(=O)Nc2nccs2)c1[N+](=O)[O-]
cell number change: -21.5%

COc1ccc(C(=O)N/C(=C\c2cccc3ccccc23)C(=O)NCCc2c[nH]c3ccccc23)cc1OC
cell number change: -19.2% | AC50 [1]: 4.61 µM [falling, partial curve, poor fit]

CCN1CCN(c2nc(-c3ccccn3)nc3ccccc23)CC1
cell number change: 22.9% | AC50 [1]: 0.00461 µM [rising, full curve, poor fit]

Cc1nc2nc(-c3cccnc3)[nH]n2c(=O)c1C
cell number change: 18.1% | AC50 [1]: 18.4 µM [falling, partial curve]

CCOC(=O)Cn1nnnc1CN(Cc1ccc(OC)cc1)Cc1cc2cc(C)cc(C)c2[nH]c1=O
AC50 [2]: 0.92 µM [rising, full curve] | AC50 [1]: 2.06 µM [rising, partial curve]
